Experimental findings from publication PMC7862700 are described below.

Amino acid sequences for entries named in this document (tags omitted). A change or cut given only in a name is not applied to a line headed by its entry.
UniProt P32519: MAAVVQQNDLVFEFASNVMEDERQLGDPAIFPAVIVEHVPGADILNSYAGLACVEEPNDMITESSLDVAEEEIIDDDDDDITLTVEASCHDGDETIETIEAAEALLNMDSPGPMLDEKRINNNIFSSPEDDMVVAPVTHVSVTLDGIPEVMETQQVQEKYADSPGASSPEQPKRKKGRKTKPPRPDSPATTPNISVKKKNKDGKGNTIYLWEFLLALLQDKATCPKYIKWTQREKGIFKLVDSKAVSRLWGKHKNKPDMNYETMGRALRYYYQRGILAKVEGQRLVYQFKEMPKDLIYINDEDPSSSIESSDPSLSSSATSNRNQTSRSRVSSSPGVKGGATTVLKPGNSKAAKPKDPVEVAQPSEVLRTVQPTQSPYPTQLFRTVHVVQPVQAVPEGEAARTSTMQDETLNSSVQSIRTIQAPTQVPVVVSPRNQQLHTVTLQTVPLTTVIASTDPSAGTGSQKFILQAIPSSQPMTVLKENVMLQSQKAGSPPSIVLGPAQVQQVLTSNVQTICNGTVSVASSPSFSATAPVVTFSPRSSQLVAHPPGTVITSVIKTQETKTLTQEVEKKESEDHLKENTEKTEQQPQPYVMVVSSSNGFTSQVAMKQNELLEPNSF
UniProt P50549: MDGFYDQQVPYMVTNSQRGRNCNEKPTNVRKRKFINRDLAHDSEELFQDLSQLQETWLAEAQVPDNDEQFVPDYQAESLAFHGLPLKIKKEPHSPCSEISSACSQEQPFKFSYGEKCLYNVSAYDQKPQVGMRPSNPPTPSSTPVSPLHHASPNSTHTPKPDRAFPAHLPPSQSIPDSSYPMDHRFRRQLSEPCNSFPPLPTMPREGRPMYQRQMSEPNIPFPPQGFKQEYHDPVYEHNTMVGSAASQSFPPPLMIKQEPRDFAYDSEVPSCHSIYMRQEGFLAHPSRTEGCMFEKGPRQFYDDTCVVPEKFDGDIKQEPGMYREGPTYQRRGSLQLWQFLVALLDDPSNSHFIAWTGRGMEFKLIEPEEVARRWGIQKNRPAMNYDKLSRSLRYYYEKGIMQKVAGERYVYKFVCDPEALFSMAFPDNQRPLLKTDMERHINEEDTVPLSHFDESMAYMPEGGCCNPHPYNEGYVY

The entries are a selection whose mix differs from that of the whole data set. For part of these data: At the low end of the ranking the order means little. This is one part of the list. For part of these data: The exact form of the protein is not confirmed.

What all share (test): DAPPL (digital affinity profiling via proximity ligation, sequencing)
What all share (details): 10 mM Tris-HCl pH 7.5, 50 mM NaCl, 1 mM DTT, 4% glycerol, room temperature, 30 min; GST-TFs on glutathione beads, 16-mer random dsDNA library, 0.1% …; high values mean tight binding; double strand, one strand shown; scale: fold enrichment (6-mer frequency, TF over GST control)

In assay [1] the target is T1, ERG (UniProt P11308).
T1 sequence: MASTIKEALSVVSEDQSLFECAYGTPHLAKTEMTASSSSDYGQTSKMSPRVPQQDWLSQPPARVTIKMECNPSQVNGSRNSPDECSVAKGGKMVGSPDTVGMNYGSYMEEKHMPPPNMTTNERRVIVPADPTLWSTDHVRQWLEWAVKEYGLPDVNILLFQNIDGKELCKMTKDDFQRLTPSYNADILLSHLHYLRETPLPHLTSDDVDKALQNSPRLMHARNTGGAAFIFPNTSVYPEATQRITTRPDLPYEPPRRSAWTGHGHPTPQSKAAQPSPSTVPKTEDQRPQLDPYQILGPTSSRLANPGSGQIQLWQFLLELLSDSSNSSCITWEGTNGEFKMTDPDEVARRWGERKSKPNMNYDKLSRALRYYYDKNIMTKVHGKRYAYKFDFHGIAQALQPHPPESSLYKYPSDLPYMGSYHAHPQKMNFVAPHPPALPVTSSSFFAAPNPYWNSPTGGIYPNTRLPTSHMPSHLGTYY

Assay [2] deals with ELF1 (UniProt P32519).
Assay [3] has as its target T2, ELK4 (UniProt P28324-2).
T2 sequence: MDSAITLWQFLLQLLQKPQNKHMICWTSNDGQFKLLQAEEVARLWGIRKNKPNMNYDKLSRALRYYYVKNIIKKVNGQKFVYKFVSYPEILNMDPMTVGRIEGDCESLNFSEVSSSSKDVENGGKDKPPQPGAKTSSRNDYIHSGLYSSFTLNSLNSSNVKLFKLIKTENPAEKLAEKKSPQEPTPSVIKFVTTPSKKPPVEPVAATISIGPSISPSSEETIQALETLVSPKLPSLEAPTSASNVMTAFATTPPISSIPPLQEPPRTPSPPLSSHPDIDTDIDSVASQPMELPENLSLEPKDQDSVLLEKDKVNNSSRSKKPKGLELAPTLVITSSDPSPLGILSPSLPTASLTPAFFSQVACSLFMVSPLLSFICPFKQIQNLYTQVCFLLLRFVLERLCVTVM

Assay [4] has as its target T3, ETV4 (UniProt P43268).
T3 sequence: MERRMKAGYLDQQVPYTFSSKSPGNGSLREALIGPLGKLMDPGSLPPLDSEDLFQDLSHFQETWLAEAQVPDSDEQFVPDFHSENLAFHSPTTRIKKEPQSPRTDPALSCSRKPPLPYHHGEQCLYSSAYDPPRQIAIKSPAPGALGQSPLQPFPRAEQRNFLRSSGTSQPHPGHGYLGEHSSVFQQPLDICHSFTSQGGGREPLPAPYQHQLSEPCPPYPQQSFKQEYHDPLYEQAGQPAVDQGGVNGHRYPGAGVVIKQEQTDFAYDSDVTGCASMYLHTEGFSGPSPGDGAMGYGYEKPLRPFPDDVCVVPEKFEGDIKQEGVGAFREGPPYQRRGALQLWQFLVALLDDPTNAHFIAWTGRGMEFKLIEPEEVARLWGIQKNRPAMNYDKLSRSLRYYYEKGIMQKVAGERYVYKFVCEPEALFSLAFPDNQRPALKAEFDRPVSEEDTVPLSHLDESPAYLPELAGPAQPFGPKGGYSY

Assay [5] concerns the target ETV1 (UniProt P50549).
For assay [6], the target named is T4, ERF (UniProt P50548).
T4 sequence: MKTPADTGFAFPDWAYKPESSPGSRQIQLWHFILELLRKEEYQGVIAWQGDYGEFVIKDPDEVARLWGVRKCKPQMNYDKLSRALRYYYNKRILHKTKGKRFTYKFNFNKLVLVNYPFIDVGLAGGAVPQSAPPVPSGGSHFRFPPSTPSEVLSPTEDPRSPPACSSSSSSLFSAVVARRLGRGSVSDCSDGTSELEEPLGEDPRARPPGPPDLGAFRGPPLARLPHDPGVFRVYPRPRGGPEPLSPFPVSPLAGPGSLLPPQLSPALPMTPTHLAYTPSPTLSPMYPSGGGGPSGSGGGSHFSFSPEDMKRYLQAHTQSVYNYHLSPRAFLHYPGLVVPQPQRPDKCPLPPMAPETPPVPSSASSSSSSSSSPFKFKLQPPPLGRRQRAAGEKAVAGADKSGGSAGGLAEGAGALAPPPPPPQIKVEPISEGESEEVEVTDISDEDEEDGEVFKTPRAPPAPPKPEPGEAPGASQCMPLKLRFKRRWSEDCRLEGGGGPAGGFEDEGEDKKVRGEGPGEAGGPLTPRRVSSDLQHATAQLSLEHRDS

Turning to GTCTGG, the binding signal in assay [1] was 0.896; in assay [2], 0.833; in assay [3], 0.774; in assay [4], 0.874; in assay [5], 0.873; in assay [6], 0.872.
Regarding AGAATG, the binding signal in assay [1] was determined as 0.99; in assay [2], 0.985; in assay [3], 0.894; in assay [4], 0.982; in assay [5], 0.912; in assay [6] it was 0.959.
For the sequence AGCATA, the binding signal in assay [1] was 0.97; in assay [2] it was 0.954; in assay [3], 0.956; in assay [4], 0.914; in assay [5] it was 0.857; in assay [6], 0.949.
AGTACG: the binding signal in assay [1] worked out at 0.92; in assay [2], 0.838; in assay [3], 0.873; in assay [4] it was 0.89; in assay [5], 0.839; in assay [6], 0.785.
Consider CAGATA, for which the binding signal in assay [1] was 0.961; in assay [2] it was 0.933; in assay [3], 0.945; in assay [4], 0.93; in assay [5], 0.978; in assay [6] it was 0.926.
In the case of AACGGT, the binding signal in assay [1] amounted to 0.974; in assay [2] it was 0.923; in assay [3] it was 0.993; in assay [4] it was 0.907; in assay [5], 0.99; in assay [6], 0.974.
For ATTGTG, the binding signal in assay [1] was 0.951; in assay [2], 0.899; in assay [3], 0.926; in assay [4] it was 0.917; in assay [5], 0.741; in assay [6], 1.06.
Consider AAAGGC, for which the binding signal in assay [1] amounted to 0.899; in assay [2], 0.997; in assay [3], 0.878; in assay [4] it was 0.973; in assay [5], 0.984; in assay [6] it was 0.931.
For the sequence GATCGA, the binding signal in assay [1] worked out at 0.776; in assay [2], 0.862; in assay [3], 0.914; in assay [4], 0.755; in assay [5], 0.851; in assay [6] it was 0.849.
As for GAGAAT, the binding signal worked out at 0.786 in assay [1]; 0.761 in assay [2]; 0.763 in assay [3]; 0.712 in assay [4]; 0.687 in assay [5]; 0.687 in assay [6].
TCGTTA: the binding signal worked out at 0.901 in assay [1]; 0.973 in assay [2]; 0.917 in assay [3]; 0.987 in assay [4]; 0.824 in assay [5]; 0.947 in assay [6].
As for GGATAA, the binding signal was 0.805 in assay [1]; 0.792 in assay [2]; 0.761 in assay [3]; 0.775 in assay [4]; 0.819 in assay [5]; 0.759 in assay [6].
With GCGACG, the binding signal in assay [1] stood at 0.948; in assay [2], 0.912; in assay [3] it was 0.886; in assay [4], 0.986; in assay [5], 0.914; in assay [6] it was 0.996.
Regarding GTGTAA, the binding signal in assay [1] was 0.955; in assay [2] it was 0.875; in assay [3] it was 0.868; in assay [4] it was 0.972; in assay [5], 0.886; in assay [6], 0.905.
As for AGAGAT, the binding signal in assay [1] is 0.934; in assay [2], 0.897; in assay [3], 0.95; in assay [4], 0.912; in assay [5], 0.902; in assay [6] it was 0.883.
As to CGTTTG, the binding signal in assay [1] stood at 0.887; in assay [2], 0.992; in assay [3], 1.07; in assay [4] it was 1.11; in assay [5], 1.06; in assay [6], 0.951.
GGATTC: the binding signal was 0.906 in assay [1]; 0.965 in assay [2]; 0.976 in assay [3]; 0.871 in assay [4]; 0.907 in assay [5]; 0.914 in assay [6].
Take TCAGAC: the binding signal in assay [1] turned out to be 0.846; in assay [2], 0.884; in assay [3], 0.868; in assay [4], 0.917; in assay [5] it was 0.895; in assay [6], 0.933.
Regarding GGCAGC, the binding signal in assay [1] came out at 0.984; in assay [2], 0.94; in assay [3] it was 0.959; in assay [4] it was 0.954; in assay [5], 0.916; in assay [6], 0.872.
In the case of ACAAGA, the binding signal stood at 0.96 in assay [1]; 0.977 in assay [2]; 0.896 in assay [3]; 0.908 in assay [4]; 0.973 in assay [5]; 0.983 in assay [6].
Turning to TTGGAA, the binding signal in assay [1] amounted to 0.997; in assay [2], 0.95; in assay [3], 0.83; in assay [4], 0.974; in assay [5], 0.992; in assay [6] it was 0.963.
For the sequence AGCACG, the binding signal was found to be 0.855 in assay [1]; 0.914 in assay [2]; 0.879 in assay [3]; 0.977 in assay [4]; 0.901 in assay [5]; 1.01 in assay [6].
Consider AGGTTC, for which the binding signal in assay [1] stood at 0.852; in assay [2], 0.87; in assay [3], 0.843; in assay [4], 0.854; in assay [5], 0.844; in assay [6], 0.825.
